Laboratory results published in PubChem BioAssay AID1347076 (National Center for Advancing Translational Sciences (NCATS), 2019).
The whole screen tested about 400,000 compounds, of which about 13,000 (3.2%) were called active. The shares of active, inactive and inconclusive entries below differ from those in the screen. The call rests on the fitted dose curve; in most records, active means well fitted cell-killing curve with a large enough effect; inconclusive means small, poorly fitted or top-dose-only effect, or effect the other way; inactive means flat fitted curve, though single readings scatter. A potency beside an inconclusive call is a rough fit, not a confirmed value.

assay: qHTS assay for MDR1-selective chemotherapeutics: Primary screen using the drug-selected MDR subline cells KB-V1; details: KB-V1 MDR cells viability, CellTiter-Glo, 72 h; series mostly up to 46.1 µM; further: nearly all actives have a fitted effect of over 60% in size
In short: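 Cytotoxicity via CellTiter-Glo luminescence after 72 h compound exposure at 37 degrees C. Cells: drug-selected KB-V1 line, DMEM phenol-red free plus 10% FBS. Compounds tested at multiple concentrations; normalized data fitted to concentration-effect curves.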
Potency means the concentration at half of the fitted maximal effect.

Row | Structure (SMILES) | Potency
1 | O=C(c1cccc(COc2ccc(Cl)cc2Cl)c1)N1CCN(c2ccccn2)CC1 | inconclusive: 18.4 µM [cytotoxic, single point]
2 | CCN(CC)CCCNC(=O)c1ccc2c(c1)N(Cc1c(F)cccc1Cl)C(=O)c1ccccc1S2 | inactive
3 | CCOC(CC(=O)NNC(=O)c1c(-c2ccccc2Cl)noc1C)OCC | inactive
4 | O=C(NNS(=O)(=O)c1ccc2ccccc2c1)C1CCN(Cc2ccccc2)CC1 | inconclusive: 10.3 µM [cytotoxic, partial curve, poor fit]
5 | c1csc(-c2nn3c(C4COc5ccccc5O4)nnc3s2)c1 (stereo not drawn) | inconclusive: 16.4 µM [cytotoxic, single point]
6 | Cc1c(-c2nsc(NC(=O)c3cccs3)n2)nnn1-c1ccc(Cl)cc1 | inactive
7 | COc1ccc(CN2CCCCC2C)c(C)c1C (stereo not drawn) | inconclusive: 10.3 µM [cytotoxic, partial curve]
8 | COC(=O)c1ccccc1Nc1ccnc(Cl)n1 | inactive
9 | CC1(C)NC(=O)N(CCCOc2ccc(Br)cc2Cl)C1=O | inconclusive: 16.4 µM [cytotoxic, single point]
10 | CC(NCc1cccc(OCc2ccccc2)c1)C(O)c1ccccc1 (stereo not drawn) | inactive
11 | COc1ccc(-c2nc(-c3ccncc3)no2)cc1OC | inactive
12 | O=C(N/N=C/c1ccccc1C(=O)O)c1ccncc1 | inconclusive: 29.1 µM [rising, single point]
13 | CNC(=S)Nc1ccc(N2CCN(c3ccc(C(F)(F)F)cn3)CC2)nc1 | inactive
14 | COC(=O)c1sccc1NC(=O)CSc1cc(Cl)ccc1Cl | inconclusive: 23.1 µM [cytotoxic, partial curve]
15 | CCOC(=O)C1CCCN(C(=O)c2c(C)nn(-c3ccc(F)cc3)c2-n2cccc2)C1 (stereo not drawn) | inconclusive: 16.4 µM [cytotoxic, single point]
16 | Cc1c(C(C)(C)O)[nH]c2ccc(C#N)cc12 | inconclusive: 29.1 µM [rising, partial curve, poor fit]
17 | COc1cc(/C=N/NC(=S)NC2CC3CC2C2C=CCC32)ccc1O (stereo not drawn) | inconclusive: 18.4 µM [cytotoxic, partial curve, poor fit]
18 | CSc1ncccc1C(=O)NC1CCN(Cc2ccccc2)CC1 | inactive
19 | CCCCN(C)C(=O)C1CCN(Cc2ccc(OCc3ccccc3)cc2)CC1 | inconclusive: 2.59 µM [cytotoxic, partial curve, poor fit]
20 | COc1ccc(OC)c(S(=O)(=O)N2CCC(C(=O)N3CCN(c4ccc(F)cc4)CC3)CC2)c1 | inconclusive: 20.6 µM [cytotoxic, single point]
21 | O=c1[nH]c(=O)n(Cc2ccccc2)c2nc(-c3ccc(Oc4ccc(F)cc4)c([N+](=O)[O-])c3)n(CCO)c12 | inconclusive: 20.6 µM [cytotoxic, single point]
22 | CCCCCCn1c(N2CCC(C)CC2)nc2c1c(=O)[nH]c(=O)n2C | inconclusive: 29.1 µM [cytotoxic, single point]
23 | Cc1cc(C=O)c(C)c2c1[nH]c1ccccc12 | inconclusive: 23.1 µM [cytotoxic, single point]
24 | N#CC(CC(=O)c1ccc(Cl)cc1)c1ccccc1 (stereo not drawn) | active: 16.4 µM

Row | Structure (SMILES) | Potency
25 | CC(C)(C)CC(C)(C)N=C1Nc2ccccc2NC12C[C@H]1CCC(=O)N3CC[C@@H](C2)[C@@H]13 (stereo partly drawn) | inconclusive: 10.3 µM [rising, partial curve, poor fit]
26 | O=C1NC(=S)S/C1=C/c1ccc(N2CCOCC2)o1 | inactive
27 | N#CCc1ccc(C(=O)c2ccccc2F)s1 | inconclusive: 20.6 µM [rising, single point]
28 | CS(=O)c1ccccc1-c1nc(-c2ccc([N+](=O)[O-])cc2)no1 (stereo not drawn) | active: 8.2 µM
29 | Cc1cccc(C)c1-n1nnnc1SCc1nc(N)nc(N(C)C)n1 | inactive
30 | COc1ccc(CN2CCOCC2)cc1Br | inactive
31 | COc1ccc(N(CC(=O)NCc2cccnc2)S(=O)(=O)c2ccccc2)c(OC)c1 | inconclusive: 4.11 µM [cytotoxic, full curve]
32 | CC(=O)c1cccc(NCc2ccccc2-c2nnc(-c3ccccc3)o2)c1 | inactive
33 | CCCCn1c(=N)n(CC(O)c2ccccc2)c2ccccc21 (stereo not drawn) | inconclusive: 23.1 µM [cytotoxic, single point]
34 | CCOC(=O)C(CC)Sc1ncnc2sc3c(c12)CCCC3 (stereo not drawn) | inactive
35 | c1ccc(-c2nc3c4ccccc4ccn3c2CN2CCOCC2)cc1 | inconclusive: 18.4 µM [cytotoxic, partial curve]
36 | S=C1NCN(C2CCCCC2)CN1Cc1ccccc1 | inconclusive: 29.1 µM [rising, single point]
37 | Cc1nc2cc(NC(=O)N3CCCCC3)ccc2n1C | inconclusive: 14.6 µM [rising, partial curve, poor fit]
38 | O=C(Nc1ccc(NC(=O)c2ccco2)nc1)c1ccco1 | inconclusive: 23.1 µM [cytotoxic, partial curve, poor fit]
39 | CCN1CCN(S(=O)(=O)c2ccc(Cl)c(C(=O)N(CC)Cc3ccccc3)c2)CC1 | inconclusive: 7.31 µM [cytotoxic, partial curve]
40 | COc1ccc(-c2csc(NC(=O)C3CC(=O)N(Cc4ccccc4)C3)n2)cc1OC (stereo not drawn) | inconclusive: 18.4 µM [cytotoxic, single point]
41 | CC(C)Oc1ccc(N2CC(C(=O)NC3=NCCS3)CC2=O)cc1 (stereo not drawn) | inactive
42 | COc1ccc2[nH]c(C(=O)N3CCN(C)CC3)c(C)c2c1 | inactive
43 | Cc1ccc(OC(C)C(=O)N2CC(=O)Nc3ccccc32)cc1 (stereo not drawn) | inconclusive: 20.6 µM [cytotoxic, partial curve, poor fit]
44 | COc1nc(N)nc2nc[nH]c12 | inactive
45 | CC(C)(C)C1CCc2c(sc(NC(=O)Cn3nnc(-c4cccc(C(F)(F)F)c4)n3)c2C#N)C1 (stereo not drawn) | inconclusive: 29.1 µM [cytotoxic, single point]
46 | COc1ccc(CNc2ncnc3c2[nH]c2ccccc23)cc1 | active: 13 µM
47 | COc1cccc(C(O)c2nc(-c3cccc(F)c3)cs2)c1 (stereo not drawn) | inactive
48 | Cn1c(CNC(=O)CSc2n[nH]c(-c3ccccc3)n2)nc2ccccc21 | inactive

Single entries from the entries so far.
Entry for `Cc1nc2cc(NC(=O)N3CCCCC3)ccc2n1C` under Potency: inconclusive: 14.6 µM [rising, partial curve, poor fit]
Entry for `COc1ccc(N(CC(=O)NCc2cccnc2)S(=O)(=O)c2ccccc2)c(OC)c1` under Potency: inconclusive: 4.11 µM [cytotoxic, full curve]

Part of the list above, in CSV form:
Row,Structure (SMILES),Potency
38,O=C(Nc1ccc(NC(=O)c2ccco2)nc1)c1ccco1,"inconclusive: 23.1 µM [cytotoxic, partial curve, poor fit]"
39,CCN1CCN(S(=O)(=O)c2ccc(Cl)c(C(=O)N(CC)Cc3ccccc3)c2)CC1,"inconclusive: 7.31 µM [cytotoxic, partial curve]"
